# In PubChem BioAssay AID590 (National Center for Advancing Translational Sciences (NCATS), 2007):
# In all, about 59,000 compounds went through this assay and about 6,500 (11%) were called active. This list was built around the results that the source calls inconclusive (neither active nor inactive); the mix of calls is not that of the screen. No stated cut-off is given here; in the data, active means max dye-equivalent concentration above about 10 nM; inconclusive means mostly about 1.1 nM to 9.6 nM; inactive means weaker than that.
# Assay: qHTS Assay for Spectroscopic Profiling in A350 Spectral Region
# Settings: Compound autofluorescence, 340/450 nm, Alexa 350 dye-equivalents; stronger effect = higher value
Compound,max dye-equivalent concentration,outcome
Cc1ccc(S(=O)(=O)N2CCCC(C(=O)NCc3ccccn3)C2)cc1 (stereo unspecified),inactive,
CCNC(=O)CSc1nc2cc(OC)c(OC)cc2c(=O)n1CCC1=CCCCC1,inconclusive: 1.1 nM,
Cc1cnc(-c2nnc(N(C)C(=O)c3cccnc3)s2)cn1,inconclusive: 1.5 nM,
Cc1ccc(OC(=O)c2ccc(C)c(C)c2)cn1,inconclusive: 1.1 nM,
O=C(Cn1ncc2c(=O)oc3ccccc3c21)NCCC1=CCCCC1,inconclusive: 3.6 nM,
CSc1nc(N)nc(SCC(=O)c2ccccc2)c1C#N,inconclusive: 2.1 nM,
COc1ccc(-c2noc(-c3ccccc3C(=O)NCc3ccco3)n2)cc1OC,inconclusive: 1.2 nM,
C=C(C)CSc1nnc2n(C)c(=O)c3c4c(sc3n12)CCC4,inconclusive: 2.8 nM,
CN(C)c1ccc(-c2nnn(CC(=O)N3c4ccccc4CCc4ccccc43)n2)cc1,inconclusive: 1.3 nM,
CC1=C(C(=O)OC(C)C)C(/C=C/c2ccccc2)NC(=O)N1 (stereo unspecified),inconclusive: 2.5 nM,
CCn1c(SCC(=O)Nc2cc(C)ccc2C)nnc1-c1cnccn1,inconclusive: 2.2 nM,
CC1CCN(S(=O)(=O)c2ccc3[nH]c(=O)cc(C(=O)O)c3c2)CC1,inconclusive: 2.4 nM,
CCC(C)n1cnc2c(c1=O)c1nc3ccccc3nc1n2-c1ccc2c(c1)OCCO2 (stereo unspecified),active: 49 nM,
CCc1ccc2[nH]c(=O)c(CN(Cc3nnnn3C3CCCC3)C3CCCCC3)cc2c1,inconclusive: 5.7 nM,
c1ccc(Nc2ncnc3ccc(-c4cccnc4)cc23)cc1,inactive,
O=C(c1ccc(NS(=O)(=O)c2cccc3cccnc23)cc1)N1CCOCC1,inactive,
Cc1nnc(Sc2nc(Sc3nnc(C)s3)nc(N3CCN(C)CC3)n2)s1,inactive,
CCCN1C[C@H](CSC)C[C@H]2c3cccc4[nH]cc(c34)C[C@@H]21,inconclusive: 6.6 nM,inactive
CNC(=O)c1cc(S(=O)(=O)N(C)C)ccc1Cl,inconclusive: 1.4 nM,
O=C(Nc1cn(-c2ccccc2)nc1-c1cccs1)c1ccco1,inconclusive: 4.8 nM,
Cc1cccc(-c2cc3nc4c(c(N5CCC6(CC5)OCCO6)n3n2)CCCC4)c1,active: 28 nM,
Cn1c(=O)c2c(nc(NCc3ccc4c(c3)OCO4)n2C)n(C)c1=O,inactive,
NCCCNCCSP(=O)(O)O,inactive,
O=C(c1ccco1)N(Cc1nc2ccccc2c(=O)[nH]1)C1CCCC1,inconclusive: 1.2 nM,

Compound,max dye-equivalent concentration,outcome
COC(=O)CS(=O)(=O)c1ccc2c(c1)CC(=O)N2,inconclusive: 5.1 nM,
O=C(Nc1ccccc1)Nc1nncs1,inactive,
O=C(NCCc1ccccc1)C1CCN(S(=O)(=O)N2CCC3(CC2)OCCO3)CC1,inconclusive: 2.3 nM,
COc1ccc(OC)c(C(=O)c2coc3ccc(O)c(CN4CCOCC4)c23)c1,inconclusive: 1.1 nM,
CCN(Cc1cc2ccccc2[nH]c1=O)C(=O)C(C)C,inconclusive: 1.2 nM,
C=CCn1c(CNC(=O)CCC)nc2ccccc21,inactive,
COc1ccc(-c2nnc(SCC#CCO)o2)cc1OC,inactive,
Cc1sc2ncnc(OCC(=O)NCc3cccs3)c2c1C,active: 10 nM,
CC(=O)Nc1cnc2ccccc2n1,inconclusive: 2.1 nM,
Cc1[nH]c(=O)c(C#N)c(C)c1Br,inconclusive: 1.8 nM,
Cc1cc(S(=O)(=O)NC2CCCC2)ccc1F,inactive,
c1ccc2nc(C3=NCCN3)ccc2c1,inactive,
COc1nc2c(C)cccc2cc1-c1noc(-c2ccco2)n1,inconclusive: 9 nM,
CC(C)COC(=O)C(N)C(C(=O)OCC(C)C)c1ccccc1 (stereo unspecified),inconclusive: 1.5 nM,
COc1ccc(NC(=O)NC2(C(=O)N3CCCCCC3)CCCCC2)cc1,inactive,
O=C(NCC12CC3CC(CC(C3)C1)C2)c1cc2n(n1)C(C(F)(F)F)CC(c1ccco1)N2 (stereo unspecified),inconclusive: 2 nM,
C=CCOc1cccc(C2/C(=C(/O)c3ccccc3)C(=O)C(=O)N2CCCN2CCOCC2)c1 (stereo unspecified),inconclusive: 1.2 nM,
COc1ccc(C2C3=C(CC(C)(C)CC3=O)Oc3ncn(Cc4ccco4)c(=N)c32)cc1 (stereo unspecified),inactive,
Cc1cc(C)n2nc(SCC(=O)NCc3ccco3)nc2n1,inactive,
O=C(c1ccccc1)N1CCN(CC#Cc2ccccc2)CC1,inconclusive: 1.2 nM,
CCOc1cc(C(=O)Nc2ccc3c(c2)OCO3)ccc1OC(F)F,inconclusive: 1.5 nM,
COC(=O)Nc1nnc(Cc2ccc(OC)cc2)s1,inconclusive: 1.2 nM,
CC(C)c1ccc(C(=O)N2CCN(CCO)CC2)cc1,inactive,
CN(C)CCCOC(=O)CCc1ccccc1,inactive,

# Entries listed so far that contain an NH in an aromatic ring:
Compound,max dye-equivalent concentration,outcome
CC1CCN(S(=O)(=O)c2ccc3[nH]c(=O)cc(C(=O)O)c3c2)CC1,inconclusive: 2.4 nM,
CCc1ccc2[nH]c(=O)c(CN(Cc3nnnn3C3CCCC3)C3CCCCC3)cc2c1,inconclusive: 5.7 nM,
CCCN1C[C@H](CSC)C[C@H]2c3cccc4[nH]cc(c34)C[C@@H]21,inconclusive: 6.6 nM,inactive
O=C(c1ccco1)N(Cc1nc2ccccc2c(=O)[nH]1)C1CCCC1,inconclusive: 1.2 nM,
CCN(Cc1cc2ccccc2[nH]c1=O)C(=O)C(C)C,inconclusive: 1.2 nM,
Cc1[nH]c(=O)c(C#N)c(C)c1Br,inconclusive: 1.8 nM,

# The listing continues.

Compound,max dye-equivalent concentration,outcome
CC1CN(S(=O)(=O)c2cccc(-c3cn4cccnc4n3)c2)CC(C)O1 (stereo unspecified),active: 2600 nM,
CCOc1cc(C2C(C#N)=C(N)Oc3n[nH]c(-c4ccccc4)c32)ccc1O (stereo unspecified),inconclusive: 2 nM,
CS(=O)(=O)N1CCC[C@@]2(CCN(c3ccncc3)C2)C1,inactive,
CC(=O)Nc1c(C(=O)O)[nH]c2ccccc12,inactive,
COCCn1c(C)c(C(=O)O)sc1=S,inconclusive: 1.7 nM,
CC(=O)N1CCc2ccc(C(=O)CN3CCN(c4cccc(C)c4C)CC3)cc21,inconclusive: 2.1 nM,
Cn1c(=O)c2c(ncn2CC(=O)N2CCN(c3ccccc3)CC2)n(C)c1=O,inactive,
CCCc1cc(=O)oc2c(C)c(O)c(CN3CCCCC3)cc12,active: 8800 nM,
COc1ccccc1CNc1nc2nc(C)c(Cl)c(=O)n2[nH]1,inconclusive: 3.5 nM,
CCCCC(=O)Nc1ccc(C(=O)N2CCN(C)CC2)cc1,inactive,
CCSc1nc2c(c(=O)[nH]1)C(c1cccnc1)C(C(=O)OC)=C(C)N2 (stereo unspecified),inconclusive: 9.2 nM,
O=C1CCCC/C1=C/Nc1ccc2c(c1)OCO2,inconclusive: 2.5 nM,
COc1ccc(-c2ccc(-c3noc(-c4cccc(OC)c4)n3)c(OC)n2)cc1,active: 850 nM,
COc1ccc(N2CCN(S(=O)(=O)c3ccc(Br)s3)CC2)cc1,inconclusive: 5.6 nM,
O=c1nc2n(c3c4c(sc13)CCC4)CCC2,inactive,
c1ccc(-c2nn3c(Cn4cnc5ccccc54)nnc3s2)cc1,inconclusive: 1.1 nM,
CCCCS(=O)(=O)Nc1ccc(Cc2ccncc2)cc1,inactive,
CC(C)C(NC(=O)c1ccc(Cl)cc1)C(=O)NC1=NCCS1 (stereo unspecified),inconclusive: 1.6 nM,
COCc1nnc(NS(=O)(=O)c2ccccc2)s1,inconclusive: 1.6 nM,
COc1cccc(-c2ccc3ncnc(N4CCNCC4)c3c2)c1,inactive,
CCCCNc1c(C(=O)OCC)c(C)nc2c1cnn2CC,inconclusive: 2.3 nM,
Cc1ccc2c(CC(=O)OCc3csc(C)n3)coc2c1,inconclusive: 1.2 nM,
CSc1nnc(-c2ccc(S(=O)(=O)N3CCCC3)cc2)n1C,inactive,
Cc1ccc(CCNC(=O)c2nnn(-c3cccc(C)c3)c2N)cc1,inactive,

Compound,max dye-equivalent concentration,outcome
O=C(O)COc1cccc2nsnc12,active: 22 nM,
Cc1ccc(-n2c(SCC(=O)OC(C)C)nnc2-c2ccncc2)cc1,inconclusive: 1.3 nM,
Cc1cc(C)cc(NC(=O)CSc2nnc(-c3ccc(S(=O)(=O)N4CCCC4)cc3)o2)c1,inconclusive: 1.3 nM,
O=C(c1cccnc1Nc1ccc2c(c1)CCC2)N1CCOCC1,inconclusive: 2.5 nM,
Cc1noc(C)c1COC(=O)C1CC(O)CN1S(=O)(=O)c1ccc(Cl)cc1 (stereo unspecified),active: 27 nM,
CCCOc1ccc(C2c3c(oc4ccccc4c3=O)C(=O)N2CCCN2CCOCC2)cc1 (stereo unspecified),inconclusive: 1.5 nM,
CCOC(=O)C1=C(N)c2ccccc2CC1C(C)C (stereo unspecified),active: 28 nM,
Cc1ccc(CNc2nc3ccccc3s2)s1,inconclusive: 7.5 nM,
CCOC(=O)c1sc(=S)n(-c2cc(F)ccc2F)c1N,inconclusive: 1.4 nM,
CCOC(=O)c1nnn(-c2nonc2-n2cccc2)c1CN1CCCCC1,inconclusive: 2 nM,
N=c1c(S(=O)(=O)c2ccccc2)cc2c(=O)n3ccccc3nc2n1CC1CCCO1 (stereo unspecified),active: 430 nM,
CCNc1c(N)c(=O)oc2ccccc12,inconclusive: 1.4 nM,
Cc1nc2ccccc2nc1OCC(=O)NCc1ccc2c(c1)OCO2,inconclusive: 2.1 nM,
CCN(Cc1ccccc1)C(c1cc2cc(C)ccc2[nH]c1=O)c1nnnn1CCOC (stereo unspecified),inconclusive: 6.7 nM,
COCCCn1c(CCC(=O)O)ccc1-c1ccc(F)cc1,active: 1500 nM,
CCOC(=O)c1ccc(CS(=O)c2ccc(Cl)cc2)o1 (stereo unspecified),inactive,
COc1ccc(CNC(=O)Cn2nc(C(F)(F)F)c3c2CCC3)cc1,inconclusive: 5.9 nM,
COc1ccc(-c2nc(C#N)c(NC(C)c3ccccc3)o2)cc1OC (stereo unspecified),inconclusive: 5.4 nM,
O=C(CN1CCN(c2ccccc2)CC1)Nc1ccc(-n2cnnn2)cc1,inconclusive: 3.1 nM,
COc1ccccc1CN(C)C(=O)C1COc2ccccc2O1 (stereo unspecified),inconclusive: 1.5 nM,
Cc1occc1-c1nnc(SCC(=O)N2CCc3ccccc32)o1,inconclusive: 2.4 nM,
CCc1nnc(NC(=O)C2CCCN2S(=O)(=O)c2ccc(F)cc2)s1 (stereo unspecified),inactive,
Cc1cccn2c(=O)c(/C=C(\C#N)S(=O)(=O)c3ccccc3)c(N3CCN(C)CC3)nc12,active: 21 nM,
